Results as given in patent US11813264B2, “PAR1 modulation to alter myelination” (Mayo Foundation for Medical Education and Research, priority 2014, dated 2023).

System: PLP and MBP RNA expression
Test: Myelin gene expression (PLP, MBP RNA) in primary oligodendrocytes, quantitative RT-PCR
Format: cell-based, mouse

Q: What does the source list for “Klk6: Recombinant murine kallikrein-related peptidase 6 expressed using a baculovirus system”?
A: GAPDH RNA expression (PAR1+/+ cells treated with Klk6): 1.4×10^6±4.4×10^4 copies/0.5 μg RNA; GAPDH RNA expression (PAR1-/- cells treated with Klk6): 1.4×10^6±6.5×10^3 copies/0.5 μg RNA
